This is an account of results in PubChem BioAssay AID330 (DTP/NCI, 2004).

The test system of this experiment is P388 leukemia ip, CD2F1 mice, survival T/C. Briefly: NCI In Vivo Anticancer Drug Screen. Data for tumor model P388 Leukemia (intraperitoneal) in CD2F1 (CDF1) mice. Conditions: T/C endpoint: median survival time, higher T/C = longer survival.
The mark [1] stands for this setting: dose: 50.0 mg/kg/injection, schedule: Q04DX003 (ip), vehicle: Klucel (hydroxypropylcellulose) (HPC).
Where [2] appears, read: dose: 100.0 mg/kg/injection, schedule: Q01DX005 (ip), vehicle: Klucel (hydroxypropylcellulose) (HPC).
The mark [3] stands for this setting: dose: 100.0 mg/kg/injection, schedule: Q01DX009 (ip), vehicle: Klucel (hydroxypropylcellulose) (HPC).
Where [4] appears, read: dose: 100.0 mg/kg/injection, schedule: Q04DX003 (ip), vehicle: Klucel (hydroxypropylcellulose) (HPC).
[5] abbreviates: dose: 200.0 mg/kg/injection, schedule: Q01DX005 (ip), vehicle: Klucel (hydroxypropylcellulose) (HPC).
The mark [6] stands for this setting: dose: 200.0 mg/kg/injection, schedule: Q01DX009 (ip), vehicle: Klucel (hydroxypropylcellulose) (HPC).
[7] abbreviates: dose: 200.0 mg/kg/injection, schedule: Q04DX003 (ip), vehicle: Klucel (hydroxypropylcellulose) (HPC).
Where [8] appears, read: dose: 400.0 mg/kg/injection, schedule: Q04DX002 (ip), vehicle: Klucel (hydroxypropylcellulose) (HPC).
[9] abbreviates: dose: 400.0 mg/kg/injection, schedule: Q04DX003 (ip), vehicle: Klucel (hydroxypropylcellulose) (HPC).

The list is a part of this screen's results and no random one: it gathers tests that were run many times, whatever their T/C, doses with no T/C, and many T/C values between a quarter and a half above the control. Further doses and runs are listed elsewhere. T/C: endpoint of the treated group in % of that of the vehicle group. Some doses have a count of surviving animals in place of a T/C: the source files T/C as zero there, which appears to mark a toxic dose or a test without result, not a measured value. Some survivor counts are full or nearly so, which does not show that the dose was tolerated: the source hardly ever lists a survival T/C far under the control, and the zero likely stands for such cases as well. Counts of survivors are from the toxicity check (mostly the fifth day) where no day follows; animals may have died later. Schedule codes are those of the source, taken here to give the interval after Q, in days (D) or hours (H), and the number of doses after X. Some entries hold several experiments; their values stand side by side, smallest first. Where survival is the endpoint, the PubChem record calls one and a half times the control and up active, and a quarter to a half above the control has no call in these data; cut-offs in other NCI protocols can differ. Some T/C values carry the count of animals alive at the toxicity check (mostly the fifth day); without a count, all were alive then. Counts like (3×) stand for listed records that agree.

`NC(=S)N/N=C/c1ccc(O)cn1`: the T/C (dose: 9.4 mg/kg/injection, schedule: Q01DX009 (ip), vehicle: saline with Tween-80) is 143 % of control; the T/C (dose: 18.8 mg/kg/injection, schedule: Q01DX009 (ip), vehicle: saline) was 144 % of control; the T/C (dose: 25.0 mg/kg/injection, schedule: Q01DX005 (ip), vehicle: Klucel (hydroxypropylcellulose) (HPC)) is 118, 119, 121, 123, 124 [5 of 6 alive], 125, 127, 128, 130, 133, 138, 139 (2×), 142 (2×), 143, 147 (2×), 148, 149 (2×), 150, 151 (3×), 152 (2×), 153 (3×), 154, 156, 161 (2×), 163, 168 % of control; the T/C (dose: 25.0 mg/kg/injection, schedule: Q01DX009 (ip), vehicle: Klucel (hydroxypropylcellulose) (HPC)) was 129 [2 of 3 alive], 135, 139 (3×), 141, 143, 145, 147, 149, 150 (3×), 151, 153, 155, 156, 157, 158, 159, 161 (2×), 163 (3×), 163 [5 of 6 alive], 168, 169 (2×), 174, 180, 181, 183, 184, 185 % of control; the T/C (dose: 25.0 mg/kg/injection, schedule: Q04DX003 (ip), vehicle: Klucel (hydroxypropylcellulose) (HPC)) is 135 % of control; the T/C (dose: 37.5 mg/kg/injection, schedule: Q01DX009 (ip), vehicle: saline with Tween-80) was 145 % of control. Further, the T/C (dose: 50.0 mg/kg/injection, schedule: Q01DX001 (ip), vehicle: Klucel (hydroxypropylcellulose) (HPC)) was 93 [4 of 6 alive], 100, 104 [2 of 3 alive], 105 [2 of 3 alive], 109 (2×), 113, 116, 117 (2×), 119, 120, 121, 122, 123, 125, 126, 127, 127 [5 of 6 alive], 128 (4×), 129, 131, 132 (2×), 134, 138, 139, 146 [2 of 3 alive], 147 % of control; the T/C (dose: 50.0 mg/kg/injection, schedule: Q01DX005 (ip), vehicle: Klucel (hydroxypropylcellulose) (HPC)) was 121, 124, 125, 130, 131, 133 [5 of 6 alive], 138, 140, 142 (3×), 143, 144, 150, 153 (2×), 156 (2×), 157 (2×), 160 (2×), 163 (2×), 165 (3×), 166, 168, 169, 171 (2×), 175, 177 (2×), 179 % of control; the T/C (dose: 50.0 mg/kg/injection, schedule: Q01DX009 (ip), vehicle: Klucel (hydroxypropylcellulose) (HPC)) is 96, 130 [2 of 3 alive], 135, 150, 151 (2×), 159 (2×), 163 (2×), 165, 166 (2×), 170, 171 (3×), 175 (3×), 179, 179 [5 of 6 alive], 180, 181, 182, 183, 184, 185, 187, 188, 191 (2×), 198, 213, 223 % of control; the T/C (dose: 50.0 mg/kg/injection, schedule: Q04DX002 (ip), vehicle: Klucel (hydroxypropylcellulose) (HPC)) is 98, 100, 111 (2×), 112, 113 (2×), 116, 121, 122, 123 (3×), 127 (2×), 129, 131 (2×), 132, 133 (3×), 135, 136, 137, 139 (2×), 140, 143, 145, 150, 151, 153, 163, 170 % of control; the T/C under setting [1] was 100, 115, 116 [5 of 6 alive], 119, 120, 121 (2×), 125 (2×), 128 (2×), 130, 134 (2×), 135, 136 (2×), 137, 138, 139, 140 (2×), 141, 142, 143, 144, 144 [5 of 6 alive], 145 (2×), 149, 151, 155, 159, 163, 165 % of control; the T/C (dose: 100.0 mg/kg/injection, schedule: Q01DX001 (ip), vehicle: Klucel (hydroxypropylcellulose) (HPC)) was 93, 100, 109, 119, 122, 123 (3×), 125 (3×), 127, 128 (2×), 130, 131, 132 (4×), 134 (3×), 135, 138 (2×), 142, 144 (2×), 145 (2×), 154 % of control. For the same compound, the T/C is 88, 104, 121, 138 (2×), 141, 146, 150, 151 (2×), 154 (2×), 155, 157, 158, 159, 166, 174, 176 (2×), 177, 178, 180, 182 (2×), 183, 188, 189 (2×), 191, 198 [5 of 6 alive], 199, 200, 206, 218 % of control under setting [2]; 86, 92, 98, 103, 140, 145, 170, 174, 183, 185, 192, 196, 198, 199, 202 (2×), 204, 209, 213 % of control under setting [3]; 87 [2 of 3 alive], 101, 109, 112, 115, 118 (2×), 120 (2×), 122, 124, 125, 126, 129, 129 [5 of 6 alive], 130 (2×), 131, 135, 138, 141 (2×), 144, 145 (2×), 146, 148, 150, 151, 152, 153, 160, 161, 162, 163 % of control (dose: 100.0 mg/kg/injection, schedule: Q04DX002 (ip), vehicle: Klucel (hydroxypropylcellulose) (HPC)); 100, 112 (2×), 113, 121, 122, 126, 128, 130, 134, 136, 139, 141, 142, 145, 148, 150 (2×), 151, 153, 155, 157, 158 (3×), 160, 165, 168 (2×), 171, 173, 174, 195 % of control under setting [4]; 93, 103, 126, 127, 128, 131, 132, 134, 135 (2×), 136, 137, 139, 140, 141 (4×), 142, 143, 145 (2×), 146, 147, 148, 149, 150 (2×), 151, 153, 154, 161 % of control (dose: 200.0 mg/kg/injection, schedule: Q01DX001 (ip), vehicle: Klucel (hydroxypropylcellulose) (HPC)); 88, 130, 133, 146, 147, 152, 157, 160, 179, 209 % of control under setting [5]. Besides, the T/C reads like this: under setting [6], 89, 96, 207 % of control; (dose: 200.0 mg/kg/injection, schedule: Q04DX002 (ip), vehicle: Klucel (hydroxypropylcellulose) (HPC)) 100, 115, 120, 128, 130, 131, 134 (2×), 135 (2×), 136, 137, 138, 139, 142, 147 (3×), 148 (2×), 149, 151, 152, 154 (2×), 155, 159, 160, 163, 168, 172 (2×), 178, 183, 206 % of control; under setting [7], 96, 119, 131, 144, 145 (2×), 147 (2×), 148, 149, 154, 155, 158 (2×), 159, 160, 162, 163, 165 (3×), 166 (2×), 168 (2×), 169 (2×), 170, 171, 178, 181, 182, 184 % of control (2×); (dose: 400.0 mg/kg/injection, schedule: Q01DX001 (ip), vehicle: Klucel (hydroxypropylcellulose) (HPC)) 99, 100, 110, 127, 129, 129 [5 of 6 alive], 134, 138, 142 (3×), 144 (2×), 145, 146, 149 (2×), 150, 152 (2×), 156 (2×), 157, 158 (2×), 159 (2×), 160, 163, 175 % of control; under setting [8], 89, 94, 100, 114, 115, 125, 129 (2×), 137, 148 (2×), 159, 160, 163 (2×), 166 (3×), 169 [5 of 6 alive], 175 [5 of 6 alive], 191, 203, 204 % of control; under setting [9], 87, 90 (2×), 93, 111, 112, 113, 120, 123, 128, 142, 147, 153, 186, 191, 192, 195, 216 % of control. The survivor count by setting is: under setting [1], 3 of 3 and 6 of 6; (dose: 75.0 mg/kg/injection, schedule: Q01DX009 (ip), vehicle: other) 6 of 6; under setting [2], 3 of 3; under setting [3], 3 of 3 and 6 of 6; under setting [4], 0 of 6, 3 of 3, 6 of 6; (dose: 150.0 mg/kg/injection, schedule: Q01DX009 (ip), vehicle: other) 6 of 6. The survivor count reads like this: (dose: 150.0 mg/kg/injection, schedule: Q01DX009 (ip), vehicle: saline with Tween-80) 6 of 6; (dose: 150.0 mg/kg/injection, schedule: Q01DX009 (ip), vehicle: saline) 5 of 6; under setting [5], 1 of 6, 1 of 3, 2 of 3, 4 of 6, 5 of 6, 3 of 3, 6 of 6; under setting [6], 1 of 3, 2 of 6, 2 of 3, 4 of 6, 3 of 3, 6 of 6; under setting [7], 3 of 3 and 6 of 6; (dose: 300.0 mg/kg/injection, schedule: Q01DX009 (ip), vehicle: saline) 2 of 6. Moreover, the survivor count was 2 of 3, 3 of 3, 6 of 6 under setting [8] and 2 of 3, 3 of 3, 6 of 6 under setting [9].

`CC1CC[N-]C(CCC2CC(C)CC[N-]2)C1.CC1CC[N-]C(CCC2CC(C)CC[N-]2)C1.[Ni+2].[O-][Cl+3]([O-])([O-])O` (configuration not stated): the survivor count is listed as 2 of 6 (dose: 200.0 mg/kg/injection, schedule: Q01DX001 (ip), vehicle: saline) and 0 of 6 (dose: 400.0 mg/kg/injection, schedule: Q01DX001 (ip), vehicle: saline).

For `Cc1ccc(-c2cc(=O)c3cc(C)c(C)c(C#N)c3o2)cc1`, the survivor count (dose: 60.0 mg/kg/injection, schedule: Q01DX005 (ip), vehicle: Klucel (hydroxypropylcellulose) (HPC)) is listed as 6 of 6.

Consider `O=S(=O)(F)c1cccc(Cl)c1C[P+](c1ccccc1)(c1ccccc1)c1ccccc1`, for which the T/C (dose: 1.88 mg/kg/injection, schedule: Q01DX005 (ip), vehicle: saline with Tween-80) was 128 % of control; the T/C (dose: 3.75 mg/kg/injection, schedule: Q01DX005 (ip), vehicle: saline with Tween-80) is 135 % of control; the T/C (dose: 7.5 mg/kg/injection, schedule: Q01DX005 (ip), vehicle: saline with Tween-80) was 136 % of control; the T/C (dose: 7.5 mg/kg/injection, schedule: Q01DX005 (ip), vehicle: saline) was 129 % of control. Also, the survivor count was 5 of 6 (dose: 15.0 mg/kg/injection, schedule: Q01DX005 (ip), vehicle: saline); 4 of 6 (dose: 30.0 mg/kg/injection, schedule: Q01DX005 (ip), vehicle: saline); 0 of 6 (dose: 60.0 mg/kg/injection, schedule: Q01DX005 (ip), vehicle: saline with Tween-80); 0 of 6 (dose: 120.0 mg/kg/injection, schedule: Q01DX005 (ip), vehicle: saline with Tween-80); 0 of 6 (dose: 240.0 mg/kg/injection, schedule: Q01DX005 (ip), vehicle: saline with Tween-80).

In the case of `CCOC(=O)c1cnc(Sc2c([N+](=O)[O-])ncn2C)nc1N`, the survivor count is listed as 6 of 6 under setting [3] and 6 of 6 under setting [6].
